Experimental findings from PubChem BioAssay AID186 (DTP/NCI, 2004) are described below.

Shown are survivors of the treated group in tumour-free mice. Counts of survivors are from the toxicity check (mostly the fifth day) where no day follows; animals may have died later. Schedule codes are those of the source, taken here to give the interval after Q, in days (D) or hours (H), and the number of doses after X.

This assay concerns B6D2F1 mice, nontumored toxicity test, survival. The experiment in a line: NCI In Vivo Anticancer Drug Screen. Data for tumor model Nontumored Animals (Toxicity Test) in B6D2F1 (BDF1) mice. The settings on record: vehicle: saline.

Consider `O=c1[nH]c(=O)n(C2CC(O)C(CO)O2)cc1F` (centres undefined), for which the survivor count reads like this: (dose: 3.12 mg/kg/injection, schedule: Q03HX024 (ip)) 6 of 6; (dose: 6.25 mg/kg/injection, schedule: Q03HX008 (ip)) 6 of 6; (dose: 6.25 mg/kg/injection, schedule: Q03HX016 (ip)) 6 of 6; (dose: 6.25 mg/kg/injection, schedule: Q03HX024 (ip)) 6 of 6; (dose: 12.5 mg/kg/injection, schedule: Q03HX008 (ip)) 5 of 6; (dose: 12.5 mg/kg/injection, schedule: Q03HX016 (ip)) 6 of 6. Besides, the survivor count (dose: 12.5 mg/kg/injection, schedule: Q03HX024 (ip)) is recorded as 6 of 6; the survivor count (dose: 25.0 mg/kg/injection, schedule: Q01DX009 (ip)) is given as 6 of 6; the survivor count (dose: 25.0 mg/kg/injection, schedule: Q03HX008 (ip)) is listed as 6 of 6; the survivor count (dose: 25.0 mg/kg/injection, schedule: Q03HX016 (ip)) was 6 of 6; the survivor count (dose: 25.0 mg/kg/injection, schedule: Q03HX024 (ip)) is given as 6 of 6; the survivor count (dose: 50.0 mg/kg/injection, schedule: Q01DX009 (ip)) is listed as 5 of 6. The survivor count is reported as 6 of 6 (dose: 50.0 mg/kg/injection, schedule: Q03HX008 (ip)); 6 of 6 (dose: 50.0 mg/kg/injection, schedule: Q03HX016 (ip)); 6 of 6 (dose: 50.0 mg/kg/injection, schedule: Q03HX024 (ip)); 6 of 6 (dose: 100.0 mg/kg/injection, schedule: Q01DX009 (ip)); 6 of 6 (dose: 100.0 mg/kg/injection, schedule: Q03HX008 (ip)); 6 of 6 (dose: 100.0 mg/kg/injection, schedule: Q03HX016 (ip)). Also, the survivor count (dose: 100.0 mg/kg/injection, schedule: Q03HX024 (ip)) is reported as 6 of 6; the survivor count (dose: 100.0 mg/kg/injection, schedule: Q04DX003 (ip)) was 6 of 6; the survivor count (dose: 160.0 mg/kg/injection, schedule: Q01DX001 (ip)) is reported as 6 of 6; the survivor count (dose: 200.0 mg/kg/injection, schedule: Q01DX001 (ip)) is recorded as 6 of 6; the survivor count (dose: 200.0 mg/kg/injection, schedule: Q01DX009 (ip)) was 6 of 6; the survivor count (dose: 200.0 mg/kg/injection, schedule: Q03HX008 (ip)) is listed as 6 of 6. The survivor count is 6 of 6 (dose: 200.0 mg/kg/injection, schedule: Q03HX016 (ip)); 6 of 6 (dose: 200.0 mg/kg/injection, schedule: Q04DX003 (ip)); 6 of 6 (dose: 200.0 mg/kg/injection, schedule: Q08DX002 (ip)); 6 of 6 (dose: 400.0 mg/kg/injection, schedule: Q01DX001 (ip)); 6 of 6 (dose: 400.0 mg/kg/injection, schedule: Q01DX009 (ip)); 6 of 6 (dose: 400.0 mg/kg/injection, schedule: Q04DX003 (ip)). Further, the survivor count is on record as 6 of 6 (dose: 400.0 mg/kg/injection, schedule: Q08DX002 (ip)); 6 of 6 (dose: 800.0 mg/kg/injection, schedule: Q01DX001 (ip)); 6 of 6 (dose: 800.0 mg/kg/injection, schedule: Q04DX003 (ip)); 6 of 6 (dose: 800.0 mg/kg/injection, schedule: Q08DX002 (ip)); 6 of 6 (dose: 1600.0 mg/kg/injection, schedule: Q04DX003 (ip)); 6 of 6 (dose: 1600.0 mg/kg/injection, schedule: Q08DX002 (ip)).
Consider `C1CN1c1nc(N2CC2)nc(N2CC2)n1`, for which the survivor count reads like this: (dose: 0.67 mg/kg/injection, schedule: Q01DX005 (ip)) 10 of 10; (dose: 1.0 mg/kg/injection, schedule: Q01DX005 (ip)) 10 of 10; (dose: 1.5 mg/kg/injection, schedule: Q01DX005 (ip)) 9 of 9.
